{"source": "PubChem BioAssay AID1224829 – NIAID, 2016", "purpose": "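Secondary check of hits that alter LPS-induced p65 translocation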 (follow-up of hits)", "cell system": "mouse RAW264.7 G9 macrophage reporter cells", "knock-down reagent": "single siRNA against mouse genes, 100 nM", "duration": "2 days of siRNA knock-down, then 40 min of LPS before fixing", "conditions": "LPS (Salmonella minnesota R595) at 10 ng/ml", "measured": "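Imaging of GFP-p65 after 40 min of LPS; nuclear over perinuclear ring intensity ratio, scaled to plate median and non-targeting control wells, given as z-score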", "direction": "p65 translocation z-score: higher = more nuclear NF-kappaB p65 after LPS", "hit rule": "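An siRNA is called active when the mean z-score of its two replicates is above 2 or below -2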", "meaning of the calls": "active = changed p65 translocation (either direction); inactive = no clear change", "note": "Here is one part, drawn at random, of about 3,800 reagents tested. 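Calls cover raised and lowered translocation; gene median uses one vendor's three siRNAs; qiagen siRNAs acted more weakly than ambion siRNAs.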 A number with no mark means an inactive call. Reagents against one gene are numbered here. Further read-outs or replicates are left out here. No sequences are given here."}
{"gene knocked down": "Mtbp (GeneID 105837)", "reagent no.": 1, "siRNA vendor or control pool": "ambion single siRNA", "p65 translocation z-score, replicate mean": -0.294, "p65 translocation z-score, replicate 1": -0.165}
{"gene knocked down": "Mtbp (GeneID 105837)", "reagent no.": 2, "siRNA vendor or control pool": "ambion single siRNA", "p65 translocation z-score, replicate mean": 0.86, "p65 translocation z-score, replicate 1": 1.54}
{"gene knocked down": "Mtbp (GeneID 105837)", "reagent no.": 3, "siRNA vendor or control pool": "ambion single siRNA", "p65 translocation z-score, replicate mean": -1.49, "p65 translocation z-score, replicate 1": -1.73}
{"gene knocked down": "Mtbp (GeneID 105837)", "reagent no.": 4, "siRNA vendor or control pool": "qiagen single siRNA", "p65 translocation z-score, replicate mean": 1.44, "p65 translocation z-score, replicate 1": 1.51}
{"gene knocked down": "Mtbp (GeneID 105837)", "reagent no.": 5, "siRNA vendor or control pool": "qiagen single siRNA", "p65 translocation z-score, replicate mean": "2.85 (active)", "p65 translocation z-score, replicate 1": 1.35}
{"gene knocked down": "Mtbp (GeneID 105837)", "reagent no.": 6, "siRNA vendor or control pool": "qiagen single siRNA", "p65 translocation z-score, replicate mean": -1.3, "p65 translocation z-score, replicate 1": 0.201}

Just “p65 translocation z-score, replicate 1” (2 entries from above):
Mtbp (GeneID 105837) #5, siRNA vendor or control pool qiagen single siRNA	1.35 (active)
Mtbp (GeneID 105837) #6, siRNA vendor or control pool qiagen single siRNA	0.201

The listing continues:
{"gene knocked down": "Ier5 (GeneID 15939)", "reagent no.": 1, "siRNA vendor or control pool": "ambion single siRNA", "p65 translocation z-score, replicate mean": -1.66, "p65 translocation z-score, replicate 1": -2.04}
{"gene knocked down": "Ier5 (GeneID 15939)", "reagent no.": 2, "siRNA vendor or control pool": "ambion single siRNA", "p65 translocation z-score, replicate mean": -1.46, "p65 translocation z-score, replicate 1": -0.753}
{"gene knocked down": "Ier5 (GeneID 15939)", "reagent no.": 3, "siRNA vendor or control pool": "ambion single siRNA", "p65 translocation z-score, replicate mean": "-2.35 (active)", "p65 translocation z-score, replicate 1": -1.62}
{"gene knocked down": "Adamts7 (GeneID 108153)", "reagent no.": 1, "siRNA vendor or control pool": "ambion single siRNA", "p65 translocation z-score, replicate mean": 0.743, "p65 translocation z-score, replicate 1": 3.13}
{"gene knocked down": "Adamts7 (GeneID 108153)", "reagent no.": 2, "siRNA vendor or control pool": "ambion single siRNA", "p65 translocation z-score, replicate mean": 0.828, "p65 translocation z-score, replicate 1": 1.78}
{"gene knocked down": "Adamts7 (GeneID 108153)", "reagent no.": 3, "siRNA vendor or control pool": "ambion single siRNA", "p65 translocation z-score, replicate mean": "-3.78 (active)", "p65 translocation z-score, replicate 1": -4.43}
{"gene knocked down": "Adamts7 (GeneID 108153)", "reagent no.": 4, "siRNA vendor or control pool": "qiagen single siRNA", "p65 translocation z-score, replicate mean": 0.0723, "p65 translocation z-score, replicate 1": -0.303}
{"gene knocked down": "Adamts7 (GeneID 108153)", "reagent no.": 5, "siRNA vendor or control pool": "qiagen single siRNA", "p65 translocation z-score, replicate mean": 0.291, "p65 translocation z-score, replicate 1": -0.0963}
{"gene knocked down": "Adamts7 (GeneID 108153)", "reagent no.": 6, "siRNA vendor or control pool": "qiagen single siRNA", "p65 translocation z-score, replicate mean": -0.508, "p65 translocation z-score, replicate 1": 1.19}
